Results published in the supplement of paper PMC8498969.

Assays:
[1] = system: HEK293; experiment: IC50 for inhibition of ZIKV NS1 production
Procedure: (§1)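 HEK293 cells in 1536-well plates were pre-treated with compound for 1 h, infected with ZIKV (MOI 1) for 24 h, and NS1 antigen (intra- plus extracellular) was measured by TR-FRET. Confirmation used 11-point 1:3 dilutions, and IC50 and maximal inhibition were fitted in GraphPad Prism.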

[2] = system: HEK293; experiment: maximal inhibition of ZIKV NS1 production (% inhibition); higher = stronger antiviral effect
Procedure: as §1

[3] = system: HEK293; experiment: cytotoxicity IC50 (ATP content, uninfected cells); higher = less cytotoxic; conditions: infection: none

**Q.** Which results are given for `O=C1NC(=O)c2c1c(-c1ccccc1)cc1[nH]c3ccc(O)cc3c21`?
**A.** IC50 [1]: 4.7 µM; maximal inhibition [2]: 97; cytotoxicity IC50 [3]: 3.6 µM
